# Values from PubChem BioAssay AID1159584 (Peter MacCallum Cancer Centre, 2016).
# Test: 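Genes that CDH1-null MCF10A cells selectively depend on to survive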 (primary screen)
# System: human MCF10A breast epithelial cells, parental and CDH1-null
# Knock-down reagent: siRNA against human genes
# Measurement: 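Cell viability by CellTiter-Glo ATP luminescence, each line scaled to the mean of mock wells across plates, then CDH1-null over parental ratio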
# Direction: CDH1-null / parental viability ratio: higher = CDH1-null cells survive relatively better than parental; CDH1-null viability vs mock: higher = more viable CDH1-null cells; parental viability vs mock: higher = more viable parental cells
# Shown is a random part of about 18,000 deposited reagents. Not given: the amount of reagent, the time to read-out.
CDH1-null / parental viability ratio,CDH1-null viability vs mock (fraction of mock),parental viability vs mock (fraction of mock),gene symbol,PubChem SID
1.48,0.8,0.54,RABGGTB (Rab geranylgeranyltransferase subunit beta),SID152148500
0.96,0.46,0.48,ACER2 (alkaline ceramidase 2),SID152154793
0.91,0.67,0.74,NFKBID (NFKB inhibitor delta),SID135620797
1.1,0.88,0.8,CSPG5 (chondroitin sulfate proteoglycan 5),SID152148930
0.96,0.77,0.8,"FYN (FYN proto-oncogene, Src family tyrosine kinase)",SID135620621
0.88,0.76,0.86,TXNDC2 (thioredoxin domain containing 2),SID152156067
0.98,0.44,0.45,CARMIL3 (capping protein regulator and myosin 1 linker 3),SID152151398
1.06,0.76,0.72,PGAM5,SID135623046
0.49,0.32,0.65,SIGLEC12 (sialic acid binding Ig like lectin 12),SID134317655
0.94,0.58,0.62,TBC1D17 (TBC1 domain family member 17),SID134318567
0.69,0.71,1.03,GALNT9 (polypeptide N-acetylgalactosaminyltransferase 9),SID135622450
1.27,0.98,0.77,ZBED4 (zinc finger BED-type containing 4),SID152151719
1.02,1.25,1.23,"SHQ1 (SHQ1, H/ACA ribonucleoprotein assembly factor)",SID152147724
0.61,0.38,0.62,OR9Q2 (olfactory receptor family 9 subfamily Q member 2),SID152153293
0.99,0.99,1,CD8B (CD8 subunit beta),SID152156540
1.04,0.86,0.83,LARP1B (La ribonucleoprotein 1B),SID134317579
0.59,0.38,0.64,FBN3 (fibrillin 3),SID152156407
1.24,1.2,0.97,COL4A5 (collagen type IV alpha 5 chain),SID134315378
1,0.78,0.78,ANKRD2 (ankyrin repeat domain 2),SID134317964
0.91,0.78,0.86,NEK6 (NIMA related kinase 6),SID56478779
0.81,0.7,0.86,ZNF493 (zinc finger protein 493),SID152154964
0.96,0.88,0.92,IMPDH1 (inosine monophosphate dehydrogenase 1),SID135621822
1.12,0.72,0.64,PRSS22 (serine protease 22),SID152152047
1.18,1.23,1.04,DHDH (dihydrodiol dehydrogenase),SID152151851
1.1,0.99,0.9,LHFPL2 (LHFPL tetraspan subfamily member 2),SID152153848
1.09,0.97,0.89,MTPAP (mitochondrial poly(A) polymerase),SID134320476
1.2,0.48,0.4,ROGDI (rogdi atypical leucine zipper),SID135622727
1.28,0.64,0.5,"LLPH (LLP homolog, long-term synaptic facilitation factor)",SID134322462
1.02,0.92,0.9,SH2D6 (SH2 domain containing 6),SID134326903
1.16,0.8,0.69,TMEM106A (transmembrane protein 106A),SID134320381
1,0.84,0.84,UGT3A1 (UDP glycosyltransferase family 3 member A1),SID134313294
0.93,0.76,0.82,RALGPS2 (Ral GEF with PH domain and SH3 binding motif 2),SID134314574
1.49,0.82,0.55,FNBP1L (formin binding protein 1 like),SID135624044
1.26,0.88,0.7,ZNF721 (zinc finger protein 721),SID152148047
1.3,0.6,0.46,EIF3G (eukaryotic translation initiation factor 3 subunit G),SID152149318
1.28,0.64,0.5,KRT10 (keratin 10),SID134325593
0.85,0.39,0.46,AMTN (amelotin),SID135625158
1,0.98,0.98,EPRS1 (glutamyl-prolyl-tRNA synthetase 1),SID152147258
1.05,0.78,0.74,IL24 (interleukin 24),SID135621481
0.89,0.86,0.97,NF1 (neurofibromin 1),SID152155944
1.04,0.85,0.82,BCOR (BCL6 corepressor),SID135620845
0.85,0.61,0.72,PACSIN2 (protein kinase C and casein kinase substrate in neurons 2),SID135623802
0.73,0.63,0.86,BCL2L15 (BCL2 like 15),SID135625325
0.86,0.76,0.88,GAB2 (GRB2 associated binding protein 2),SID135622324
0.99,0.89,0.9,ZDHHC5 (zDHHC palmitoyltransferase 5),SID135624580
0.92,0.72,0.78,CPA2 (carboxypeptidase A2),SID134311243
1.2,0.79,0.66,DCTN2 (dynactin subunit 2),SID134316506
0.93,0.8,0.86,BPY2B (basic charge Y-linked 2B),SID135625128
1.14,0.84,0.74,KNOP1 (lysine rich nucleolar protein 1),SID152149415
0.81,0.78,0.96,CD1E (CD1e molecule),SID135622789
0.92,0.7,0.76,VWA2 (von Willebrand factor A domain containing 2),SID134329268
1.02,1.12,1.1,GNG10 (G protein subunit gamma 10),SID135623081
1.08,0.95,0.88,"NAA80 (N-alpha-acetyltransferase 80, NatH catalytic subunit)",SID134317054
0.8,0.56,0.7,NREP (neuronal regeneration related protein),SID134323610
0.74,0.74,1,FCER1A (Fc epsilon receptor Ia),SID134315982
0.97,1.06,1.09,MYO18B (myosin XVIIIB),SID152154844
1.09,1.01,0.93,IFNAR1 (interferon alpha and beta receptor subunit 1),SID134323939
1.19,1.02,0.86,AOPEP (aminopeptidase O (putative)),SID135621089
0.72,0.58,0.8,DCAF12L1 (DDB1 and CUL4 associated factor 12 like 1),SID152147289
1.14,1.04,0.91,ARHGEF10 (Rho guanine nucleotide exchange factor 10),SID135622535
1.25,1.25,1,CABLES2 (Cdk5 and Abl enzyme substrate 2),SID152153586
0.96,0.73,0.76,ACSM5 (acyl-CoA synthetase medium chain family member 5),SID135624970
0.85,0.85,1,ATP5MC2 (ATP synthase membrane subunit c locus 2),SID135623876
0.95,0.9,0.95,PSG7 (pregnancy specific beta-1-glycoprotein 7),SID135623813
1.05,1.15,1.1,TFF2 (trefoil factor 2),SID134315043
0.84,0.84,1,ALDH3A2 (aldehyde dehydrogenase 3 family member A2),SID135621760
1,0.94,0.94,"HCK (HCK proto-oncogene, Src family tyrosine kinase)",SID135620622
2,0.62,0.31,ARHGEF35 (Rho guanine nucleotide exchange factor 35),SID135625130
0.72,0.62,0.86,MKLN1 (muskelin 1),SID152153412
1.16,1.4,1.21,CLDN20 (claudin 20),SID152150046
1.05,0.6,0.57,NMNAT3 (nicotinamide nucleotide adenylyltransferase 3),SID134313546
1.07,0.98,0.92,EGR4 (early growth response 4),SID135621207
0.85,0.68,0.8,CCT3 (chaperonin containing TCP1 subunit 3),SID135623509
1.11,1.17,1.05,ADNP (activity dependent neuroprotector homeobox),SID134317107
0.96,0.72,0.75,EXOC1 (exocyst complex component 1),SID152156578
0.8,0.74,0.92,IFNB1 (interferon beta 1),SID135623798
1.04,0.73,0.7,H4C8 (H4 clustered histone 8),SID135622129
0.94,0.66,0.7,ANKRD10 (ankyrin repeat domain 10),SID152148003
1.2,1.01,0.84,"MUC20 (mucin 20, cell surface associated)",SID135623158
0.94,0.72,0.77,CRB2 (crumbs cell polarity complex component 2),SID135623446
0.96,0.53,0.55,"PLEKHH2 (pleckstrin homology, MyTH4 and FERM domain containing H2)",SID152147740
0.96,0.75,0.78,NBPF14 (NBPF member 14),SID134323947
0.99,0.97,0.98,NSUN5 (NOP2/Sun RNA methyltransferase 5),SID134324937
1.13,0.52,0.46,DEFB126 (defensin beta 126),SID134322863
0.83,0.78,0.94,TTN (titin),SID135620980
0.95,0.95,1,AGPAT3 (1-acylglycerol-3-phosphate O-acyltransferase 3),SID134313484
1.13,0.81,0.72,SOX6 (SRY-box transcription factor 6),SID152148248

Reformatted: entries from further up
VWA2 (von Willebrand factor A domain containing 2) [SID134329268]
- CDH1-null / parental viability ratio: 0.92
- CDH1-null viability vs mock (fraction of mock): 0.7
- parental viability vs mock (fraction of mock): 0.76

GNG10 (G protein subunit gamma 10) [SID135623081]
- CDH1-null / parental viability ratio: 1.02
- CDH1-null viability vs mock (fraction of mock): 1.12
- parental viability vs mock (fraction of mock): 1.1

NAA80 (N-alpha-acetyltransferase 80, NatH catalytic subunit) [SID134317054]
- CDH1-null / parental viability ratio: 1.08
- CDH1-null viability vs mock (fraction of mock): 0.95
- parental viability vs mock (fraction of mock): 0.88

NREP (neuronal regeneration related protein) [SID134323610]
- CDH1-null / parental viability ratio: 0.8
- CDH1-null viability vs mock (fraction of mock): 0.56
- parental viability vs mock (fraction of mock): 0.7

FCER1A (Fc epsilon receptor Ia) [SID134315982]
- CDH1-null / parental viability ratio: 0.74
- CDH1-null viability vs mock (fraction of mock): 0.74
- parental viability vs mock (fraction of mock): 1

MYO18B (myosin XVIIIB) [SID152154844]
- CDH1-null / parental viability ratio: 0.97
- CDH1-null viability vs mock (fraction of mock): 1.06
- parental viability vs mock (fraction of mock): 1.09
